{"source": "patent US20130137753A1", "about": "“METHODS AND COMPOSITIONS FOR THE DIAGNOSIS AND TREATMENT OF BREAST CANCER” (UNIVERSITY OF SOUTH ALABAMA, priority 2010, published 2013)", "tested_on": "Merlin", "assay": "Western blot of Merlin in MDA-MB-435 cells treated with Lactacystin and wortmannin", "assay_type": "cell-based", "conditions": "combined treatment Lactacystin 10-25 μM and wortmannin 100 nM, FIG. 4E", "method": "FIG. 4 depicts OPN targeting Merlin for Akt-mediated proteasomal degradation. FIG. 4A is a Western blot of SUM159 cells transfected with Merlin and treated with OPN and Lactacystin. […] The smear represents ubiquitinated Merlin. FIG. 4D is a Western blot of SUM159 transfected with HA-ubiquitin and Merlin and treated with OPN (100 ng/ml), Lactacystin (10 μM) and Akt inhibitor IV. FIG. 4E is a Western blot of MDA-MB-435 cells treated with the PI-3-kinase inhibitor, wortmannin and Lactacystin. Cells were pre-treated with Wortmannin (100 nM) for 1 hr followed by Lactacystin for 4.5 hours.\nThe converse was seen when MDAMB-435 cells were treated with the proteasome inhibitor, Lactacystin (10-25 μM) and the PI-3-kinase inhibitor, wortmannin (100 nM). […] Silencing the expression of OPN reduced the overall levels of ubiquitinated Merlin; in combination with Akt inhibitor and Lactacystin, abrogating OPN expression caused a notable decrease in the ubiquitinated Merlin (FIG. 4F).", "note": "At least one compound was matched to its structure with a doubt left."}
{"smiles": "COC[C@H]1OC(=O)c2coc3c2[C@@]1(C)C1=C(C3=O)[C@@H]2CCC(=O)[C@@]2(C)C[C@H]1OC(C)=O", "note": "[wortmannin]", "values": [{"measurement": "Merlin expression", "result": "restored Merlin expression"}]}
